Measured data: PubChem BioAssay AID1259254 (NCATS, 2017)
Aim: 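Gene knock-downs that lead to re-replication, shown by excess G2 DNA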 (primary screen). System: human HCT116 colorectal cancer cells. Knock-down reagent: single siRNA against human genes. Timing: 3 days. Measurement: 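Nuclei stained with Hoechst and imaged; cell-cycle phase assigned by DNA content; G2 share scaled per plate, non-targeting siRNA 0%, GMNN siRNA 100%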. Scale: G2 robust z-score: higher = more G2 cells, more excess DNA replication. Call rule: 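Active siRNAs have a G2 robust z of 5 or more median absolute deviations over the median, which in these data means about 38% or higher of GMNN control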.
This is a random part of about 59,000 reagents. About 1,550 of them (2.6%) were called active. 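G2 share is only a proxy for re-replication; each gene was hit by three separate siRNAs, and active genes were retested.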 Unmarked entries are inactive. Reagents against one gene are numbered here. Not all columns of the deposit are shown. Reagent sequences are not shown. Not given: the amount of reagent.

gene	siRNA no.	G2 robust z-score
TMEM129 (transmembrane protein 129, E3 ubiquitin ligase)	1	1.02
TMEM129 (transmembrane protein 129, E3 ubiquitin ligase)	2	0.153
TMEM129 (transmembrane protein 129, E3 ubiquitin ligase)	3	-0.248
AGAP1P1 (AGAP1 pseudogene 1)	1	-0.165
AGAP1P1 (AGAP1 pseudogene 1)	2	-0.257
AGAP1P1 (AGAP1 pseudogene 1)	3	-0.519
ACOT4 (acyl-CoA thioesterase 4)	1	2.81
ACOT4 (acyl-CoA thioesterase 4)	2	0.172
ACOT4 (acyl-CoA thioesterase 4)	3	-0.958
FAM24B (family with sequence similarity 24 member B)	1	0.203
FAM24B (family with sequence similarity 24 member B)	2	0.417
FAM24B (family with sequence similarity 24 member B)	3	0.822
IL31RA (interleukin 31 receptor A)	1	0.351
IL31RA (interleukin 31 receptor A)	2	-0.791
IL31RA (interleukin 31 receptor A)	3	0.131
CSRNP2 (cysteine and serine rich nuclear protein 2)	1	0.0193
CSRNP2 (cysteine and serine rich nuclear protein 2)	2	-0.19
CSRNP2 (cysteine and serine rich nuclear protein 2)	3	-0.53
C10orf53 (chromosome 10 open reading frame 53)	1	0.402
C10orf53 (chromosome 10 open reading frame 53)	2	-0.825
C10orf53 (chromosome 10 open reading frame 53)	3	-0.0553
DYNC2I2 (dynein 2 intermediate chain 2)	1	0.64
DYNC2I2 (dynein 2 intermediate chain 2)	2	1.29
DYNC2I2 (dynein 2 intermediate chain 2)	3	-0.672
DYNLL1 (dynein light chain LC8-type 1)	1	-0.312
DYNLL1 (dynein light chain LC8-type 1)	2	-1.09
DYNLL1 (dynein light chain LC8-type 1)	3	-0.0679

7 entries from above in another layout.
gene,siRNA no.,G2 robust z-score
ACOT4 (acyl-CoA thioesterase 4),3,-0.958
FAM24B (family with sequence similarity 24 member B),1,0.203
FAM24B (family with sequence similarity 24 member B),2,0.417
FAM24B (family with sequence similarity 24 member B),3,0.822
IL31RA (interleukin 31 receptor A),1,0.351
IL31RA (interleukin 31 receptor A),2,-0.791
IL31RA (interleukin 31 receptor A),3,0.131

Continued:
gene	siRNA no.	G2 robust z-score
PRR30 (proline rich 30)	1	-0.348
PRR30 (proline rich 30)	2	-0.66
PRR30 (proline rich 30)	3	0.273
ALKBH1 (alkB homolog 1, histone H2A dioxygenase)	1	-1.02
ALKBH1 (alkB homolog 1, histone H2A dioxygenase)	2	-1.05
ALKBH1 (alkB homolog 1, histone H2A dioxygenase)	3	-1.31
OR10R2 (olfactory receptor family 10 subfamily R member 2)	1	1.83
OR10R2 (olfactory receptor family 10 subfamily R member 2)	2	1.3
OR10R2 (olfactory receptor family 10 subfamily R member 2)	3	0.476
SCYL2 (SCY1 like pseudokinase 2)	1	0.233
SCYL2 (SCY1 like pseudokinase 2)	2	-0.579
SCYL2 (SCY1 like pseudokinase 2)	3	-0.992
OR2T10 (olfactory receptor family 2 subfamily T member 10)	1	1.41
OR2T10 (olfactory receptor family 2 subfamily T member 10)	2	0.921
OR2T10 (olfactory receptor family 2 subfamily T member 10)	3	-0.349
C6orf52 (chromosome 6 open reading frame 52)	1	-0.0978
C6orf52 (chromosome 6 open reading frame 52)	2	0.126
C6orf52 (chromosome 6 open reading frame 52)	3	-1.1
NMD3P1 (NMD3 ribosome export adaptor pseudogene 1)	1	2.67
NMD3P1 (NMD3 ribosome export adaptor pseudogene 1)	2	1.62
NMD3P1 (NMD3 ribosome export adaptor pseudogene 1)	3	-0.684
